Patent publication US20090299044A1 (priority 2006, published 2009)
“Also recorded” adds a separate entry of the source. Like-named read-outs stand apart in the source and are kept apart here. Not every detail of the peptide structures is certain; ends, links or a residue may be inferred. At least one compound was matched to its structure with a doubt left. Some of these results come from one statement about several compounds together.

Protein sequences, listed by entry. Tags and fused reporters are not part of them.
UniProt P22001, whole entry: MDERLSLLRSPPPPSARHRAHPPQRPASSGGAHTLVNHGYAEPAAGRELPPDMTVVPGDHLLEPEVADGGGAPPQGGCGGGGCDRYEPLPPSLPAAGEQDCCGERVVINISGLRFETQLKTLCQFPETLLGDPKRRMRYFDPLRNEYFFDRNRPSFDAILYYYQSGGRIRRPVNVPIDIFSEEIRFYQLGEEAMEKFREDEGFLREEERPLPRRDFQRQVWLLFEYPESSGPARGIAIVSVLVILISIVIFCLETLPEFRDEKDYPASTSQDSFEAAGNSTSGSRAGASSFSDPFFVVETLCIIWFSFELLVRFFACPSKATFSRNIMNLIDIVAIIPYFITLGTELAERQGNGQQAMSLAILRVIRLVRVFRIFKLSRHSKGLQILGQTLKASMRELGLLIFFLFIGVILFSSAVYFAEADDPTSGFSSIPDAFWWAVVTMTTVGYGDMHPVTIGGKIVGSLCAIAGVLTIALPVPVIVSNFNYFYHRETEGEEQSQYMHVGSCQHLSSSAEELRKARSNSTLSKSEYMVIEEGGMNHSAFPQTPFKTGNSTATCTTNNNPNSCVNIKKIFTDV

Tests used:
human Kv1.3 channel = human Kv1.3 channel (Homo sapiens, UniProt P22001); type: cell-based
[1] = test system: IL-2 production, human PBMCs; type: cell-based
[2] = test system: IL-2 production, human PBMCs; type: cell-based; remark: listed apart in the source
AT-EAE, Lewis rats = conditions: rat, in vivo
[3] = test system: IL-2 production, human whole blood; type: cell-based

CC[C@H](C)[C@@H]1NC(=O)[C@@H](NC(=O)[C@H](CO)NC(=O)[C@@H](N)CCCNC(=N)N)CSSC[C@@H](C(=O)O)NC(=O)[C@H]([C@@H](C)O)NC(=O)CNC(=O)[C@@H]2CSSC[C@@H]3NC(=O)[C@H](CCC(N)=O)NC(=O)[C@H](Cc4ccccc4)NC(=O)[C@H](C)NC(=O)[C@H]([C@@H](C)O)NC(=O)[C@H](CSSC[C@H](NC(=O)[C@H](Cc4ccccc4)NC(=O)[C@H](CO)NC(=O)[C@H](CC(C)C)NC(=O)[C@H](CCCNC(=N)N)NC(=O)[C@H](Cc4ccc(O)cc4)NC(=O)[C@H](CCCCN)NC(=O)[C@H](CCSC)NC(=O)[C@H](CO)NC(=O)[C@H](Cc4c[nH]cn4)NC(=O)[C@H](CCCCN)NC3=O)C(=O)N[C@@H](CCCNC(=N)N)C(=O)N[C@@H](CCCCN)C(=O)N[C@@H]([C@@H](C)O)C(=O)N2)NC(=O)[C@H](CCCNC(=N)N)NC(=O)[C@H](CO)NC(=O)[C@H](CCCCN)NC(=O)[C@@H]2CCCN2C(=O)[C@H]([C@@H](C)CC)NC(=O)[C@H]([C@@H](C)O)NC(=O)[C@H](CC(=O)O)NC1=O [ShK[1-35]]
block of human Kv1.3 current (in words) (human Kv1.3 channel): concentration dependent block
inhibition of IL-2 production (in words) [1]: partial inhibition
inhibition of IL-2 production (in words) [2]: only partial inhibition
EAE clinical score (AT-EAE, Lewis rats): ≥ 5.5
average body weight lost (AT-EAE, Lewis rats): 30 g
effect on disease and survival in AT-EAE (in words) (AT-EAE, Lewis rats; sc): developed severe disease and died
onset of disease (AT-EAE, Lewis rats; sc): 4 days
thapsigargin-induced IL-2 production in human whole blood (in words) [3]: potently blocked IL-2 secretion in human whole blood; also recorded: suppressed
